{"source": "patent US5510473", "target": "T1, RecA (Taq RecA) (Thermus aquaticus YT-1) (UniProt P48296)", "T1 sequence": "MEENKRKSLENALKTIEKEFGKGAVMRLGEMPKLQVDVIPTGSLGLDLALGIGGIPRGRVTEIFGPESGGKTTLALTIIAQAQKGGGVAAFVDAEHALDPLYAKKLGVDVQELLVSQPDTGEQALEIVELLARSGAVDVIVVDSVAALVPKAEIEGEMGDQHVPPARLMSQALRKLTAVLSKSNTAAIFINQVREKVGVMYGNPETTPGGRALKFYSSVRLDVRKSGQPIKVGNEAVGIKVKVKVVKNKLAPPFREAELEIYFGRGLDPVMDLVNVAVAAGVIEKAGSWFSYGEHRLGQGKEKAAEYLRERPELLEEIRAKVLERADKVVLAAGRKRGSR", "test": "filter binding", "settings": "maximum retention at 5 ug RecA with 15 ng oligo at 65 C; optimum 45-70 C (peak about 55 C), less than 10% activity above 75 C; 1.1 mM ADP, 0.3 mM ATP-gamma-S; purified recombinant protein; protein details: untagged, expressed in E. coli JM109 from pTrc99a; label: 5'-32P; single-stranded DNA", "note": "The exact form of at least one protein or probe is not confirmed. Tags and fusion partners may be left off the protein sequences shown.", "data": [{"sequence": "CTGCAATGATACCGCGAGACCCACGCTCAC [30-mer oligonucleotide]", "values": [{"measurement": "binding result", "result": "binds"}]}]}
